Source: US5466678A, “Co-administration of S-adenosyl-L-methionine to reduce the nephrotoxicity of cisplatin therapy” (priority 1992, dated 1995)
At least one structure is not confirmed: it was looked up by name or label, or the drawing left a doubt.

Tests used:
[1] = tested on: damages in the renal tissue; assay: Amelioration of damages in the renal tissue caused by cephaloridine or cyclosporin; settings: in vivo
[2] = format: in vivo, rat (SD strain); settings: intravenous
Description: Test method: To 6-week-old rats of the SD strain was intravenously administered SAMe in physiological saline (30 mg/kg, pH 6), and the blood level of SH group-containing compounds in the renal tissue was measured thereafter at 30, 60 and 120 minutes (N. Kaplowits et al., J. Pharmacol. Exp. Ther. , 1977, 200, 279-286) .
The values in the table for the concentration of SH compounds in the renal tissue and blood plasma presented as means ± standard deviation as calculated on the assumption that all the SH compounds were glutathione.

[3] = intravenous
tumor cells = assay: Antitumor activity, all tumor cells tested (summary); format: cell-based, mouse and human; settings: certain tumor species
Description: Mouse L1210 and P388 leukemic cells were adjusted to 10^4 cells/ml in culture medium RPMI 1640, and the mixture was dispensed in 2 ml portions into culture test tubes (Falcon No. 2054) and cultured at 37° C. for 5 hours in the presence of 5% carbonic acid gas in a carbonic acid gas incubator. CDDP and/or SAMes were (was) then added into each culture test tube and incubation was continued for further one hour. The cultures were centrifuged at 1,600 rpm for 5 minutes and the culture medium was removed with suction. Two ml of RPMI 1640 was added to the residue and the mixture was cultured for 72 hours under the same conditions as described above, whereafter the number of cells in each of the resulting cultures was measured on a Coulter counter (Model ZB).
Mouse Colon 26 colon tumor cells were adjusted to 5×10^3 cells/ml in culture medium […] culture was dispensed in 2 ml portions into culture Petri dishes. […] The cells were treated with trypsin, diluted and then counted using a Coulter counter.
Human tumor cells which are listed below were adjusted to 5×10^3 -2×10^4 cells/ml in culture medium RPMI 1640 (N.B. 1) or MEM (N.B. 2), and the respective cultures were dispensed in 2 ml portions into culture Petri dishes. […] The cells were treated with trypsin, diluted and then counted using a Coulter counter.

[4] = tested on: nephrotoxicity caused by CDDP; assay: Test Example 3: nephrotoxicity (BUN) after multiple administration of CDDP in the dog; format: in vivo, dog (beagle); settings: with CDDP 2 mg/kg i.v. ×3

C[S+](CC[C@H](N)C(=O)O)C[C@H]1O[C@@H](n2cnc3c(N)ncnc32)[C@H](O)[C@@H]1O (stereo partly drawn) [SAMe, S-adenosyl-L-methionine]
Effect on damages in the renal tissue [1]: ameliorate those damages in the renal tissue caused by antibiotics such as cephaloridine, or immunosuppresants such as cyclosporin
Blood (plasma) level of SH compounds (homocysteine, cysteine, glutathione) [2]: no increase in the blood (plasma) level
Blood level of SH-compounds after SAMe administration [3]: no increase in the blood level of these SH-compounds
Potentiation effect on the antitumor activity of CDDP (tumor cells): significant potentiation effect on the antitumor activity of CDDP against certain tumor species
BUN values with increasing SAMe dose [4]: significantly decreased with increasing doses of SAMe
